Binding data for one molecule are collected here from patent publication US20130323819A1 (HERA PHARMACEUTICALS, published 2013).

Sequences of proteins named here, by UniProt entry; tags and fusion partners are left off. Residues count along the entry.
UniProt P23504, residues 39-1532: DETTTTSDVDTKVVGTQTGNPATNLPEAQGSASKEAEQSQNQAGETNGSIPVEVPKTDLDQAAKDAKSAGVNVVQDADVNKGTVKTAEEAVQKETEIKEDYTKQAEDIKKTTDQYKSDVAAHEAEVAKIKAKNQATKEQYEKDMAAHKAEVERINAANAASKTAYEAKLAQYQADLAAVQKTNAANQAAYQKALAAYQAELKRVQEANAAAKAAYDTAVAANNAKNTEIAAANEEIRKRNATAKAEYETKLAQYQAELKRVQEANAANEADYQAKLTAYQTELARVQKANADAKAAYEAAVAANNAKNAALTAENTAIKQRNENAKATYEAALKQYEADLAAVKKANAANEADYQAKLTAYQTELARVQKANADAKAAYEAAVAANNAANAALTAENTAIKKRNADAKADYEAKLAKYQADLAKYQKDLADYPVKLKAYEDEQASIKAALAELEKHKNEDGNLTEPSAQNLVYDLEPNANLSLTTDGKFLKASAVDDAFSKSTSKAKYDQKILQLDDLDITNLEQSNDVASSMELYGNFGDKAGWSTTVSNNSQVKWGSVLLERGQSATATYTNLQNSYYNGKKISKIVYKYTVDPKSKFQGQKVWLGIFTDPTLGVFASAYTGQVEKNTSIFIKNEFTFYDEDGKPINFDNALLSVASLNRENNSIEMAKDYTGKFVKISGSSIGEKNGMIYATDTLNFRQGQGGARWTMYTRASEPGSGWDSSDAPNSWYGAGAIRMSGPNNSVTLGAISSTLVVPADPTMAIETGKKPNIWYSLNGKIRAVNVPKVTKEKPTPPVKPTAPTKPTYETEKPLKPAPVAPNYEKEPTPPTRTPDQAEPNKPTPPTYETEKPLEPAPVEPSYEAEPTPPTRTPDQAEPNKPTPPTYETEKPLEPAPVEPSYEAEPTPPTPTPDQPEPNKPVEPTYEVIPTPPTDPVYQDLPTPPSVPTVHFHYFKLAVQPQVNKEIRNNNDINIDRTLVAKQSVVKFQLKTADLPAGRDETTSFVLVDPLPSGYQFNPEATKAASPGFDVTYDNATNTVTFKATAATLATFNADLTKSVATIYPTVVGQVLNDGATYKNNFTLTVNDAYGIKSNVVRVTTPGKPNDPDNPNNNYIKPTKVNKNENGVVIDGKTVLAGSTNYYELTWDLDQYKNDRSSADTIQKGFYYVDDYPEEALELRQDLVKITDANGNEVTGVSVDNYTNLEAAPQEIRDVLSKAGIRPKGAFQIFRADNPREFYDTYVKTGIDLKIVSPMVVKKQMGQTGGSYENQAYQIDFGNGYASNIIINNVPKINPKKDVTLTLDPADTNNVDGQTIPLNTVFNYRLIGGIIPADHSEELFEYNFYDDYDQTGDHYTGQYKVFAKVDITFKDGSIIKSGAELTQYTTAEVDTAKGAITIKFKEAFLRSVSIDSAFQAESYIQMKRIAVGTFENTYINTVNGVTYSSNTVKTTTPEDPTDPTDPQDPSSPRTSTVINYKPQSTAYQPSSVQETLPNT

These are yes or no findings as the source states them, for the method shown. Some entries that bind do so weakly or less than the wild type. Where a sequence is shown, tags or fusion partners need not be part of it.

The assay has as its target SAI/II antigen (SAI/II adhesion of S. mutans) (Streptococcus mutans) (UniProt P23504). The experiment in a line: ELISA, SAI/II coated, culture supernatant of the integrated strain.

B1: secreted scFv anti-SAI/II (E-tagged) produced by L. paracasei pAF100 (plasmid) or L. paracasei EM182 (chromosomally integrated) (scFv)
scFv: AIVEGSAAQPAMDAQVKLQESGPDLVKPGASVKISCKASGYTFTDYNIHWVKQSRGKSLEWIGYIYPYNGNTYYNQKFKNKATLTVDNSSTSAYMELRSLTPEDSAVYYCATYFDYWGQGTTVTVSSGGGGSGGGGSGGGGSDIELTQSPAIMSASPGEKVTITCSASSSVSYMHWFQQKPGTSPKLWLYSTSNLASGVPARFSGSGSGTSYSLTISRMEAEDAATYYCHQRTSYPYTFGGGTKLEIKRAAAAGAPVPYPDPLEPRAA
notes: Same polypeptide from the plasmid strain and the integrated strain (pEM182 = pEM76 with the expression cassette of pAF100); tested as culture supernatant; also called pEM182
Consider B1, for which the binding result is on record as “binds”.
